Measurements: patent US20060093607A1
These are yes or no findings as the source states them, for the method shown. Some binding calls cover weakened binding; strength is not graded here. Blank lines part the entries; values can stand above or below the binder they belong to.

Protein sequences, listed by entry. Tags and fused reporters are not part of them. Lines headed by an entry give the natural chain unless they say otherwise; changes in a name come on top.
UniProt P06756: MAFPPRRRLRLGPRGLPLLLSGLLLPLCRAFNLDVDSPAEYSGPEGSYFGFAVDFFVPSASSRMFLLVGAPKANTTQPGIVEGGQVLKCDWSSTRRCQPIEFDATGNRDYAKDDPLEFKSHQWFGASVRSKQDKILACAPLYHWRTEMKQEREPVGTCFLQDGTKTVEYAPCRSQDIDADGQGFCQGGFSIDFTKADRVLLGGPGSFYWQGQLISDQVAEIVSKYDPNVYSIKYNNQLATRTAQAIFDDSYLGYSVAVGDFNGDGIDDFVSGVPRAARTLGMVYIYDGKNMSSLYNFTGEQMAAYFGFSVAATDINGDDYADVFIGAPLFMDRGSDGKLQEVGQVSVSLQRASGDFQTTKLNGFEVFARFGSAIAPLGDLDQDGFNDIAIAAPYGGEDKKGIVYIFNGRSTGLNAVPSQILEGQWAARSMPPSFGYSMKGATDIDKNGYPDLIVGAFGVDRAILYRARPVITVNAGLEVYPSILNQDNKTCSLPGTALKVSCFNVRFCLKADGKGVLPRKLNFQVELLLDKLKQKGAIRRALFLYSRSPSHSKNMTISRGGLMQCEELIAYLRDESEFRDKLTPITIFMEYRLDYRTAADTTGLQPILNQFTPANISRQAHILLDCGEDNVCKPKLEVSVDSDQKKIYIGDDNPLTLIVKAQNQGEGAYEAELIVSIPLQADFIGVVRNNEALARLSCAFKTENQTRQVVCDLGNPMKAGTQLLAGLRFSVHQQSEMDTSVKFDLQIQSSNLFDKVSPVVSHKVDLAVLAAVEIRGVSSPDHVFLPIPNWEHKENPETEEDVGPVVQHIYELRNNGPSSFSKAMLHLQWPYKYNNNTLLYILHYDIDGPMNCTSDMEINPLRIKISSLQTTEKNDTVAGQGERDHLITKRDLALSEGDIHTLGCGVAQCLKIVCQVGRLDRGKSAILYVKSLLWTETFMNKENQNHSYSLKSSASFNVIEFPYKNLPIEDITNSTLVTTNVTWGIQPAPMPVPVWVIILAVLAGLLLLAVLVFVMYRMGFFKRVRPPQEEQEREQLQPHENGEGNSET

Columns and labels:
[1] = molecular target: integrin αVβ5 (USBiological, 37K, Swampscott, Mass.) (UniProt P06756); assay: ELISA, αVβ5-coated plates, anti-Flag-HRP detection
[2] = molecular target: integrin αVβ5 (USBiological, 37K, Swampscott, Mass.) (UniProt P06756); assay: ELISA, αVβ5-coated plates (legend of FIG. 13, Panel A)

- binding [1]: binds
- binding [2]: binds
B1: recombinant mANGPTL4 (murine angiopoietin-like 4 protein) (ligand, mouse, UniProt Q9Z1P8 23-410, looked up)
chain: AQGRPAQPEPPRFASWDEMNLLAHGLLQLGHGLREHVERTRGQLGALERRMAACGNACQGPKGKDAPFKDSEDRVPEGQTPETLQSLQTQLKAQNSKIQQLFQKVAQQQRYLSKQNLRIQNLQSQIDLLAPTHLDNGVDKTSRGKRLPKMTQLIGLTPNATHLHRPPRDCQELFQEGERHSGLFQIQPLGSPPFLVNCEMTSDGGWTVIQRRLNGSVDFNQSWEAYKDGFGDPQGEFWLGLEKMHSITGNRGSQLAVQLQDWDGNAKLLQFPIHLGGEDTAYSLQLTEPTANELGATNVSPNGLSLPFSTWDQDHDLRGDLNCAKSLSGGWWFGTCSHSNLNGQYFHSIPRQRQERKKGIFWKTWKGRYYPLQATTLLIQPMEATAAS

- binding [1]: binds
- binding [2]: binds
B2: IgG-hANGPTL4-Nterminal (1-183) (Fc fusion, not shown: large carriers)
chain: GPVQSKSPRFASWDEMNVLAHGLLQLGQGLREHAERTRSQLSALERRLSACGSACQGTEGSTDLPLAPESRVDPEVLHSLQTQLKAQNSRIQQLFHKVAQQQRHLEKQHLRIQHLQSQFGLLDHKHLDHEVAKPARRKRLPEMAQPVDPAHNVSRLHR
